In publication doi:10.1101/2025.07.01.662281 one finds binding data, which are given here for 25 molecules.

Protein sequences, listed by entry. Tags and fused reporters are not part of them. Residues count along the entry.
UniProt P08920, residues 23-344: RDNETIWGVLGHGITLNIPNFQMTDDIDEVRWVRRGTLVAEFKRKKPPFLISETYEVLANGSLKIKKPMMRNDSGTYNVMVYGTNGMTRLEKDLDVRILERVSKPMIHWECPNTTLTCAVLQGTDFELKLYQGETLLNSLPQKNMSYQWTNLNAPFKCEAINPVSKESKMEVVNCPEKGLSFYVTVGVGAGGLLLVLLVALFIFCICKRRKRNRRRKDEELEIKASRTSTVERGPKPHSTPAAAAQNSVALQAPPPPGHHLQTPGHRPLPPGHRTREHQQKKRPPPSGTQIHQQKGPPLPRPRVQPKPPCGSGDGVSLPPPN
UniProt P63044: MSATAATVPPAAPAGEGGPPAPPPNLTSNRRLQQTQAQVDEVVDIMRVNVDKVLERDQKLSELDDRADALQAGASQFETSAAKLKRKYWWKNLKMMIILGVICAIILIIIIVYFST
UniProt P01731, residues 28-247: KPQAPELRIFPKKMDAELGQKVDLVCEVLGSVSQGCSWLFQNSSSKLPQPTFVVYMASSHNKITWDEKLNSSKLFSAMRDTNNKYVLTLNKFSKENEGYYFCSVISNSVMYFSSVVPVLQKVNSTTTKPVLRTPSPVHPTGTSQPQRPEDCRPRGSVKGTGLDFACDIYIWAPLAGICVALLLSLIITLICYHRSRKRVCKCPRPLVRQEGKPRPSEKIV
UniProt Q3UVG3: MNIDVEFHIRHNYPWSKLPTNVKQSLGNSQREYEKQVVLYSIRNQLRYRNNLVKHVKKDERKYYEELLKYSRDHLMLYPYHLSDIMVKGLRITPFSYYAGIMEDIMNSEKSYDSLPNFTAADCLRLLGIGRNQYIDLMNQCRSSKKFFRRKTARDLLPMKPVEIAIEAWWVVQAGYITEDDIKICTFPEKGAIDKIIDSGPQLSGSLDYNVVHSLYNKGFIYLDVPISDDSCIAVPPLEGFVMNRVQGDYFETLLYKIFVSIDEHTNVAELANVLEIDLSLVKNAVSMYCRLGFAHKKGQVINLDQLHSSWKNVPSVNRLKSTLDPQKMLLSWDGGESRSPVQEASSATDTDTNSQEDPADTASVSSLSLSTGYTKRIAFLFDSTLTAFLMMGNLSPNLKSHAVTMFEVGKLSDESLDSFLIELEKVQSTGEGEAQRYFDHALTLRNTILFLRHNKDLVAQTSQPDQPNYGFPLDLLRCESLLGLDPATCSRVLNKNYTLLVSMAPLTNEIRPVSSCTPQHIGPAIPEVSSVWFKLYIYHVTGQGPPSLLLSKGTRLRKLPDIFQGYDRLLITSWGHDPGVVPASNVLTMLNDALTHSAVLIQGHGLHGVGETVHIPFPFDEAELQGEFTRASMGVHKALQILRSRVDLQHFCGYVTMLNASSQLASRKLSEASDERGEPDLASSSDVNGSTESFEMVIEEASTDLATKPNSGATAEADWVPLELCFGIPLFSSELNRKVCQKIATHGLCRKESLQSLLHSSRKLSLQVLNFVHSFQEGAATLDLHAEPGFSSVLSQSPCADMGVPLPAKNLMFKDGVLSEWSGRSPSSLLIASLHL
UniProt P63024: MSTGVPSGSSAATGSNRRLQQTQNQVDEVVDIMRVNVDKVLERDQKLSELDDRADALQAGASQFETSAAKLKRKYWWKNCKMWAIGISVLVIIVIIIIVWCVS
UniProt P31041, residues 20-218: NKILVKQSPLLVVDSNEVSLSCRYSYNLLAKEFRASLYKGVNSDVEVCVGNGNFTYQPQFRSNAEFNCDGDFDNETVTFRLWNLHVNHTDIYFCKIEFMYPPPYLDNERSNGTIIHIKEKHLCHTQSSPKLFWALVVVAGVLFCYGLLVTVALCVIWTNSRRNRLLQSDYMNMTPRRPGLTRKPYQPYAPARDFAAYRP
UniProt P41272, residues 24-250: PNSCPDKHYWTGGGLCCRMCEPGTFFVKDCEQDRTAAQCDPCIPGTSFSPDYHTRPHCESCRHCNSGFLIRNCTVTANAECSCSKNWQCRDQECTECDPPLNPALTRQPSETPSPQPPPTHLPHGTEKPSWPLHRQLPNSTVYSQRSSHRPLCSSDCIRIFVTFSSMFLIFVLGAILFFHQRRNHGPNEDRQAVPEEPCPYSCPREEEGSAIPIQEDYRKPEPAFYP
UniProt P22646, residues 22-189: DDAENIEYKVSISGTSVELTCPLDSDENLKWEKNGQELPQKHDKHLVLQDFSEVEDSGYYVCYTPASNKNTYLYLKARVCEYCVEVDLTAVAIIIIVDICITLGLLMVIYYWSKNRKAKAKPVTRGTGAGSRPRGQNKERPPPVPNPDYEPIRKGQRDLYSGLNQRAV
UniProt P24161, residues 22-164: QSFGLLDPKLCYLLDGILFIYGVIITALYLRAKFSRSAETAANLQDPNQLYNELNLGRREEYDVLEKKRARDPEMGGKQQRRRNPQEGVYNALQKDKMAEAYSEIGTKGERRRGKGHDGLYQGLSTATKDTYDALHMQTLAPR
UniProt P13597, residues 28-537: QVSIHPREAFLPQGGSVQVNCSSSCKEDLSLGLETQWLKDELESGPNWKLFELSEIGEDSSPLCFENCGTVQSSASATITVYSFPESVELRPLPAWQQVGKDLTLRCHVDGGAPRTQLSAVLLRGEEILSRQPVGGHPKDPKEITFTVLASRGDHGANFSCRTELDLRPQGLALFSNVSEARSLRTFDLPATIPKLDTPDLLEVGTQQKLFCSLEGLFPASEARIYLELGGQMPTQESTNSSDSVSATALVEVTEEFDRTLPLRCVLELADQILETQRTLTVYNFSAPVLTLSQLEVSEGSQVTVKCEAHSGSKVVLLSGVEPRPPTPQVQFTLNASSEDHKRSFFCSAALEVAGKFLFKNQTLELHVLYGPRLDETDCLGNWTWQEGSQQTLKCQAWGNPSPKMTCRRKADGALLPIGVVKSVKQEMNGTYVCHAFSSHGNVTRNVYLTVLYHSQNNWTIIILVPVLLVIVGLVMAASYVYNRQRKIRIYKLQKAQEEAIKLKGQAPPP
UniProt P09793, residues 36-223: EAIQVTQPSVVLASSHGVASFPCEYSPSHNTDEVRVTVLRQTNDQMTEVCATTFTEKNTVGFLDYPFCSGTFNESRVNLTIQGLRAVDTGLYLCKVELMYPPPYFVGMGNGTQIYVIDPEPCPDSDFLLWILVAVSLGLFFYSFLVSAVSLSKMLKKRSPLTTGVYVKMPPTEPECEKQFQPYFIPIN

This test deals with T1, full-length Tmem127-BirA (UniProt Q8BGP5).
T1 sequence: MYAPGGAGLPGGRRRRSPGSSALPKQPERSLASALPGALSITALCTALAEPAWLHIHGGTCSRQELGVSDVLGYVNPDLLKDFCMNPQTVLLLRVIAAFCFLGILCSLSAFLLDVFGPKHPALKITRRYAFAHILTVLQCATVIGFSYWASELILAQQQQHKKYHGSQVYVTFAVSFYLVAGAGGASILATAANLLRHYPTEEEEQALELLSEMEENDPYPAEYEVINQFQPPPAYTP
The test is described as follows: proximity labelling.

Results are given in words; binding and its absence hold for the method and conditions named. In cells and extracts the contact can be indirect. These calls come from enrichment with a bait or labelling near it, and not all partners need be listed.

For CD2 (from UniProt P08920 23-344), the binding entry was “binds”. The value for Vamp2 (from UniProt P63044 1-116) was “binds”. Consider CD8α (from UniProt P01731 28-247), for which the binding result is listed as “binds”.

Take “CD44 (mouse (endogenous in CD8+ T cells))”: the binding result was “binds”.

In the case of Fam91a1 (from UniProt Q3UVG3 1-837), the binding entry was “binds”. As for Vamp3 (from UniProt P63024 1-103), the binding entry is on record as “binds”. For the molecule CD28 (from UniProt P31041 20-218), the binding result is “binds”. With CD27 (from UniProt P41272 24-250) the entry was “binds”; with CD3ε (from UniProt P22646 22-189), “binds”; with CD3ζ (from UniProt P24161-1 22-164), “binds”.

Take Icam1 (from UniProt P13597 28-537): the binding entry is “binds”. With CTLA-4 (from UniProt P09793 36-223) the entry was “binds”.

B1: common gamma chain (γc), endogenous in CD8+ T cells (receptor, UniProt P34902 23-369)
chain: WSSKVLMSSANEDIKADLILTSTAPEHLSAPTLPLPEVQCFVFNIEYMNCTWNSSSEPQATNLTLHYRYKVSDNNTFQECSHYLFSKEITSGCQIQKEDIQLYQTFVVQLQDPQKPQRRAVQKLNLQNLVIPRAPENLTLSNLSESQLELRWKSRHIKERCLQYLVQYRSNRDRSWTELIVNHEPRFSLPSVDELKRYTFRVRSRYNPICGSSQQWSKWSQPVHWGSHTVEENPSLFALEAVLIPVGTMGLIITLIFVYCWLERMPPIPPIKNLEDLVTEYQGNFSAWSGVSKGLTESLQPDYSERFCHVSEIPPKGGALGEGPGGSPCSLHSPYWPPPCYSLKPEA
Consider B1, for which the binding result is “binds”.

B2: CD3δ (protein, UniProt P04235 22-173)
chain: FKIQVTEYEDKVFVTCNTSVMHLDGTVEGWFAKNKTLNLGKGVLDPRGIYLCNGTEQLAKVVSSVQVHYRMCQNCVELDSGTMAGVIFIDLIATLLLALGVYCFAGHETGRPSGAAEVQALLKNEQLYQPLRDREDTQYSRLGGNWPRNKKS
With B2, the binding entry is recorded as “binds”.

B3: LAT (protein, UniProt O54957 1-242)
chain: MEADALSPVGLGLLLLPFLVTLLAALCVRCRELPVSYDSTSTESLYPRSILIKPPQITVPRTPAVSYPLVTSFPPLRQPDLLPIPRSPQPLGGSHRMPSSQQNSDDANSVASYENQEPACKNVDADEDEDDYPNGYLVVLPDSSPAAVPVVSSAPVPSNPDLGDSAFSVESCEDYVNVPESEESAEASLDGSREYVNVSPEQQPVTRAELASVNSQEVEDEGEEEGVDGEEAPDYENLQELN
For the molecule B3, the binding entry is recorded as “binds”.

B4: IL-2rb (receptor, UniProt P16297 27-539)
chain: AVKNCSHLECFYNSRANVSCMWSHEEALNVTTCHVHAKSNLRHWNKTCELTLVRQASWACNLILGSFPESQSLTSVDLLDINVVCWEEKGWRRVKTCDFHPFDNLRLVAPHSLQVLHIDTQRCNISWKVSQVSHYIEPYLEFEARRRLLGHSWEDASVLSLKQRQQWLFLEMLIPSTSYEVQVRVKAQRNNTGTWSPWSQPLTFRTRPADPMKEILPMSWLRYLLLVLGCFSGFFSCVYILVKCRYLGPWLKTVLKCHIPDPSEFFSQLSSQHGGDLQKWLSSPVPLSFFSPSGPAPEISPLEVLDGDSKAVQLLLLQKDSAPLPSPSGHSQASCFTNQGYFFFHLPNALEIESCQVYFTYDPCVEEEVEEDGSRLPEGSPHPPLLPLAGEQDDYCAFPPRDDLLLFSPSLSTPNTAYGGSRAPEERSPLSLHEGLPSLASRDLMGLQRPLERMPEGDGEGLSANSSGEQASVPEGNLHGQDQDRGQGPILTLNTDAYLSLQELQAQDSVHLI
As to B4, the binding entry is listed as “binds”.

B5: Vamp5 (protein, UniProt Q9Z2P8 1-102)
chain: MAGKELKQCQQQADEVTEIMLNNFDKVLERHGKLAELEQRSDQLLDMSSAFSKTTKTLAQQKRWENIRCRVYLGLAVAVGLLIILIVLLVVFLPSGGDSSKP
Regarding B5, the binding entry is “binds”.

B6: H2-T23 (protein, UniProt P06339 21-357)
MHC heavy: SPHSLRYFTTAVSRPGLGEPRFIIVGYVDDTQFVRFDSDAENPRMEPRARWIEQEGPEYWERETWKARDMGRNFRVNLRTLLGYYNQSNDESHTLQWMYGCDVGPDGRLLRGYCQEAYDGQDYISLNEDLRSWTANDIASQISKHKSEAVDEAHQQRAYLQGPCVEWLHRYLRLGNETLQRSDPPKAHVTHHPRSEDEVTLRCWALGFYPADITLTWQLNGEELTQDMELVETRPAGDGTFQKWAAVVVPLGKEQYYTCHVYHEGLPEPLTLRWEPPPSTVSNMVIIAVLVVLGAVIILGAVVAFVMKRRRHIGVKGCYAHVLGSKSFQTSDWPQKA
For the molecule B6, the binding entry is “binds”.

B7: IL-27ra (receptor, UniProt O70394 25-623)
chain: TRPHGSPGPLQCYSVGPLGILNCSWEPLGDLETPPVLYHQSQKYHPNRVWEVKVPSKQSWVTIPREQFTMADKLLIWGTQKGRPLWSSVSVNLETQMKPDTPQIFSQVDISEEATLEATVQWAPPVWPPQKVLICQFRYKECQAETWTRLEPQLKTDGLTPVEMQNLEPGTCYQVSGRCQVENGYPWGEWSSPLSFQTPFLDPEDVWVSGTVCETSGKRAALLVWKDPRPCVQVTYTVWFGAGDITTTQEEVPCCKSPVPAWMEWAVVSPGNSTSWVPPTNLSLVCLAPESAPCDVGVSSADGSPGIKVTWKQGTRKPLEYVVDWAQDGDSLDKLNWTRLPPGNLSTLLPGEFKGGVPYRITVTAVYSGGLAAAPSVWGFREELVPLAGPAVWRLPDDPPGTPVVAWGEVPRHQLRGQATHYTFCIQSRGLSTVCRNVSSQTQTATLPNLHLGSFKLWVTVSTVAGQGPPGPNLSLHLPDNRIRWKALPWFLSLWGLLLMGCGLSLASTRCLQARCLHWRHKLLPQWIWERVPDPANSNSGQPYIKEVSLPQPPKDGPILEVEEVELQPVVESPKASAPIYSGYEKHFLPTPEELGLLV
For the molecule B7, the binding entry is “binds”.

B8: Ifngr1 (receptor, UniProt P15261 26-477)
chain: ALTSTEDPEPPSVPVPTNVLIKSYNLNPVVCWEYQNMSQTPIFTVQVKVYSGSWTDSCTNISDHCCNIYEQIMYPDVSAWARVKAKVGQKESDYARSKEFLMCLKGKVGPPGLEIRRKKEEQLSVLVFHPEVVVNGESQGTMFGDGSTCYTFDYTVYVEHNRSGEILHTKHTVEKEECNETLCELNISVSTLDSRYCISVDGISSFWQVRTEKSKDVCIPPFHDDRKDSIWILVVAPLTVFTVVILVFAYWYTKKNSFKRKSIMLPKSLLSVVKSATLETKPESKYSLVTPHQPAVLESETVICEEPLSTVTAPDSPEAAEQEELSKETKALEAGGSTSAMTPDSPPTPTQRRSFSLLSSNQSGPCSLTAYHSRNGSDSGLVGSGSSISDLESLPNNNSETKMAEHDPPPVRKAPMASGYDKPHMLVDVLVDVGGKESLMGYRLTGEAQELS
For B8, the binding result is recorded as “binds”.

B9: IL-4R (receptor, UniProt P16382 26-810)
chain: IKVLGEPTCFSDYIRTSTCEWFLDSAVDCSSQLCLHYRLMFFEFSENLTCIPRNSASTVCVCHMEMNRPVQSDRYQMELWAEHRQLWQGSFSPSGNVKPLAPDNLTLHTNVSDEWLLTWNNLYPSNNLLYKDLISMVNISREDNPAEFIVYNVTYKEPRLSFPINILMSGVYYTARVRVRSQILTGTWSEWSPSITWYNHFQLPLIQRLPLGVTISCLCIPLFCLFCYFSITKIKKIWWDQIPTPARSPLVAIIIQDAQVPLWDKQTRSQESTKYPHWKTCLDKLLPCLLKHRVKKKTDFPKAAPTKSLQSPGKAGWCPMEVSRTVLWPENVSVSVVRCMELFEAPVQNVEEEEDEIVKEDLSMSPENSGGCGFQESQADIMARLTENLFSDLLEAENGGLGQSALAESCSPLPSGSGQASVSWACLPMGPSEEATCQVTEQPSHPGPLSGSPAQSAPTLACTQVPLVLADNPAYRSFSDCCSPAPNPGELAPEQQQADHLEEEEPPSPADPHSSGPPMQPVESWEQILHMSVLQHGAAAGSTPAPAGGYQEFVQAVKQGAAQDPGVPGVRPSGDPGYKAFSSLLSSNGIRGDTAAAGTDDGHGGYKPFQNPVPNQSPSSVPLFTFGLDTELSPSPLNSDPPKSPPECLGLELGLKGGDWVKAPPPADQVPKPFGDDLGFGIVYSSLTCHLCGHLKQHHSQEEGGQSPIVASPGCGCCYDDRSPSLGSLSGALESCPEGIPPEANLMSAPKTPSNLSGEGKGPGHSPVPSQTTEVPVGALGIAVS
For the molecule B9, the binding result is “binds”.

B10: CD86 (protein, UniProt P42082 24-309)
chain: VSVETQAYFNGTAYLPCPFTKAQNISLSELVVFWQDQQKLVLYEHYLGTEKLDSVNAKYLGRTSFDRNNWTLRLHNVQIKDMGSYDCFIQKKPPTGSIILQQTLTELSVIANFSEPEIKLAQNVTGNSGINLTCTSKQGHPKPKKMYFLITNSTNEYGDNMQISQDNVTELFSISNSLSLSFPDGVWHMTVVCVLETESMKISSKPLNFTQEFPSPQTYWKEITASVTVALLLVMLLIIVCHKKPNQPSRPSNTASKLERDSNADRETINLKELEPQIASAKPNAE
As to B10, the binding entry is given as “binds”.

B11: CD3γ (protein, UniProt P11942 23-182)
chain: QTNKAKNLVQVDGSRGDGSVLLTCGLTDKTIKWLKDGSIISPLNATKNTWNLGNNAKDPRGTYQCQGAKETSNPLQVYYRMCENCIELNIGTISGFIFAEVISIFFLALGVYLIAGQDGVRQSRASDKQTLLQNEQLYQPLKDREYDQYSHLQGNQLRKK
With B11, the binding result is reported as “binds”.

B12: Icos (protein, UniProt Q9WVS0 21-200)
chain: EINGSADHRMFSFHNGGVQISCKYPETVQQLKMRLFREREVLCELTKTKGSGNAVSIKNPMLCLYHLSNNSVSFFLNNPDSSQGSYYFCSLSIFDPPPFQERNLSGGYLHIYESQLCCQLKLWLPVGCAAFVVVLLFGCILIIWFSKKKYGSSVHDPNSEYMFMAAVNTNKKSRLAGVTS
Regarding B12, the binding entry is “binds”.

B13: Slamf1 (protein, UniProt Q9QUM4 25-343)
chain: TGGGVMDCPVILQKLGQDTWLPLTNEHQINKSVNKSVRILVTMATSPGSKSNKKIVSFDLSKGSYPDHLEDGYHFQSKNLSLKILGNRRESEGWYLVSVEENVSVQQFCKQLKLYEQVSPPEIKVLNKTQENENGTCSLLLACTVKKGDHVTYSWSDEAGTHLLSRANRSHLLHITLSNQHQDSIYNCTASNPVSSISRTFNLSSQACKQESSSESSPWMQYTLVPLGVVIIFILVFTAIIMMKRQGKSNHCQPPVEEKSLTIYAQVQKSGPQEKKLHDALTDQDPCTTIYVAATEPAPESVQEPNPTTVYASVTLPES
For B13, the binding entry is given as “binds”.
